Values from PubChem BioAssay AID1259405 (NCATS, 2018).
In all, the deposit lists about 50,000 reagents; this is a random part of them. About 4,000 of all reagents (8%) were called active. 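Mouse siRNA library applied to hamster cells; one well for each siRNA.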 Reagents against one gene are numbered here.

Purpose: 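Knock-downs that lift recombinant protein yield in hamster ovary cells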 (primary screen)
System: Chinese hamster CHO-K1 ovary cells with stable secreted eGFP expression
Reagent: single siRNA against mouse genes, 0.8 pmol siRNA per well (2 µl of 400 nM stock)
Duration: 3 days
Measurement: 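Percent of the per-plate non-targeting control median for intracellular GFP per well by laser scanning cytometry and for cell viability by ATP luminescence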
Scale: GFP, % of control: higher = more GFP per well, higher productivity; viability (ATP), % of control: higher = more viable cells (more ATP)
Call rule: 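a knock-down is called active if GFP reaches 120% or more of non-targeting control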

target gene	reagent	GFP, % of control	viability (ATP), % of control	Outcome
Tpd52l2	1	41.9	47.9	inactive
Tpd52l2	2	78.7	87.7	inactive
Tpd52l2	3	120	163	active
Tfap2b	1	82.7	76.7	inactive
Tfap2b	2	72.9	66	inactive
Tfap2b	3	82.8	112	inactive
Tmem179	1	27.1	29.3	inactive
Tmem179	2	94.4	87.9	inactive
Tmem179	3	76.4	75	inactive
Trip6	1	100	89.3	inactive
Trip6	2	79.9	98.3	inactive
Crx	1	82.9	89.1	inactive
Crx	2	95.7	74.9	inactive
Crx	3	38.2	43.8	inactive
Taf5l	1	50.8	37.8	inactive
Taf5l	2	69.2	64.5	inactive
Taf5l	3	75.7	73.6	inactive
Nek8	1	43.1	57.4	inactive
Wdr83	1	63.1	58.2	inactive
Wdr83	2	91.7	76.7	inactive
Wdr83	3	71	67.3	inactive
Pcna	1	63	66.2	inactive
Pcna	2	49.7	54.1	inactive
Pcna	3	93.8	81	inactive
Slc13a2	1	93.9	105	inactive
Slc13a2	2	44.8	64.6	inactive
Slc13a2	3	73.8	78	inactive
Pus3	1	49.4	57.5	inactive
Pus3	2	93.7	63.1	inactive
Pus3	3	51.6	57.1	inactive
Adam23	1	97.3	56.5	inactive
Adam23	2	100	41.6	inactive
Adam23	3	90.8	76.3	inactive
Krt75	1	39.7	62.9	inactive
Krt75	2	62.9	52.9	inactive

Individual results from the list.
Under “viability (ATP), % of control”, Tmem179 #3 shows 75
Entry for Crx #2 under “Outcome”: inactive
Pus3 #3, viability (ATP), % of control = 57.1
